Assay results from article PMC10535268, “Design, Synthesis, and Evaluation of Novel Indole Hybrid Chalcones and Their Antiproliferative and Antioxidant Activity” (Molecules, 2023).

Test system: Jurkat
Assay: MTT antiproliferative assay, Jurkat
Type: cell-based, human

Row | Compound | selectivity index [IC50(MCF-10A)/IC50(Jurkat cells)]
1 | O=C(/C=C/c1c[nH]c2ccccc12)c1ccccc1F [11a, (2E)-1-(2″-Fluorophenyl)-3-(1′H-indol-3′-yl)prop-2-en-1-one] | > 11
2 | COn1cc(/C=C/C(=O)c2ccccc2F)c2ccccc21 [11c, (2E)-1-(2″-Fluorophenyl)-3-(1′-methoxy-1′H-indol-3′-yl)prop-2-en-1-one] | > 11
3 | CCOc1[nH]c2ccccc2c1/C=C/C(=O)c1ccccc1F [11e, (2E)-3-(2′-ethoxy-1′H-indol-3′-yl)-1-(2″-fluorophenyl)prop-2-en-1-one] | > 11
4 | N.N.[Cl][Pt][Cl] [Cisplatin, reference compound] | 4
